In the supplement of paper PMC10849652:
This is one part of the list.

Chains of the proteins cited; added tags and fusions are not shown. Lines headed by an entry give the natural chain unless they say otherwise; changes in a name come on top.
UniProt Q8IWF6: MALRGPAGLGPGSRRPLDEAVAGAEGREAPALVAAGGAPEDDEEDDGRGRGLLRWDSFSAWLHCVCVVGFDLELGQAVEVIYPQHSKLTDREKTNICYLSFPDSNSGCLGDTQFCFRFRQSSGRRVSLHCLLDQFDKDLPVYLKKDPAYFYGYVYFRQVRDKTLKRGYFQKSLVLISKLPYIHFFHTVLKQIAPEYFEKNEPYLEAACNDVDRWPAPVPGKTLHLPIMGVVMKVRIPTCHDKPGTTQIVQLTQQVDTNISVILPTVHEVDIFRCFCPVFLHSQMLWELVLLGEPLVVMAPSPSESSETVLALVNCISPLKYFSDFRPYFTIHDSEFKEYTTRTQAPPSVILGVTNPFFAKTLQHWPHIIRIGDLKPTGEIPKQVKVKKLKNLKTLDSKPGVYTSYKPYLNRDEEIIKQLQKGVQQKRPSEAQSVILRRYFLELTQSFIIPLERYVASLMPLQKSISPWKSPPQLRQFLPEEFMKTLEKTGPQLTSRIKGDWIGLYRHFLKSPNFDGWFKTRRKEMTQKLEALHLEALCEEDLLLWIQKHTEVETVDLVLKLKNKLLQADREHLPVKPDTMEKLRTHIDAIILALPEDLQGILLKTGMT
UniProt P30046: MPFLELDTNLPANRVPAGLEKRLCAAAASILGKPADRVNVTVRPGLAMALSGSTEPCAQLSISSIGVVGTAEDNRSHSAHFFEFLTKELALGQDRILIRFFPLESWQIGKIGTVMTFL
UniProt Q7L2E3: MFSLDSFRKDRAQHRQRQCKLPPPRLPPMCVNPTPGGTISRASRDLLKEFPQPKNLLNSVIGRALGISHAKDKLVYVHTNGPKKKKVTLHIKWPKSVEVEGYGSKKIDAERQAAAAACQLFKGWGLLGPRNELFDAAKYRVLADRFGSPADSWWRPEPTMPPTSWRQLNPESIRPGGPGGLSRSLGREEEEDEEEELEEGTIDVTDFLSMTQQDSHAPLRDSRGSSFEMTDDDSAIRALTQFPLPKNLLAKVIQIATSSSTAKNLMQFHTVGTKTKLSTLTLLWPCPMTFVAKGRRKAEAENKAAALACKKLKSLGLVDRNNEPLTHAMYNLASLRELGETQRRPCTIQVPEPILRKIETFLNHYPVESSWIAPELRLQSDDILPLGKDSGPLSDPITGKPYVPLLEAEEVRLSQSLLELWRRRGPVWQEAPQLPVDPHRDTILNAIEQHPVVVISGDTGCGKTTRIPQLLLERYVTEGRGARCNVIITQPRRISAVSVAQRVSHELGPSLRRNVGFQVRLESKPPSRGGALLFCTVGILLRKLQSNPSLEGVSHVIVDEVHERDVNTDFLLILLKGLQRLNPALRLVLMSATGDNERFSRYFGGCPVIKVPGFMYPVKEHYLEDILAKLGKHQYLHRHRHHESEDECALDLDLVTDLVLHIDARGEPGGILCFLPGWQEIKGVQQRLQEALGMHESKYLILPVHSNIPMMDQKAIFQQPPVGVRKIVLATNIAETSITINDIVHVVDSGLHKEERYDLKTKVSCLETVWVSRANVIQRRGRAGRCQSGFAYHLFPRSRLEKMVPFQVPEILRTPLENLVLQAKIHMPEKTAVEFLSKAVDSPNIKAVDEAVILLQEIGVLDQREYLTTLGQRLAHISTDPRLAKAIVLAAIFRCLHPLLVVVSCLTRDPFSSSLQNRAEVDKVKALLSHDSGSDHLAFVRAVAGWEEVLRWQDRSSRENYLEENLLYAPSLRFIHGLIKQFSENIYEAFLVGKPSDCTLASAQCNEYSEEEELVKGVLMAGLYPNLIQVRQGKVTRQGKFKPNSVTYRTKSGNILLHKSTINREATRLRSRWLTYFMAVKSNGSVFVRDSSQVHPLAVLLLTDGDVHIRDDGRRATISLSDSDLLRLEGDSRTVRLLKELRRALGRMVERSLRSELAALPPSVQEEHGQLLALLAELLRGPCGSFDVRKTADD
UniProt Q9NUU7: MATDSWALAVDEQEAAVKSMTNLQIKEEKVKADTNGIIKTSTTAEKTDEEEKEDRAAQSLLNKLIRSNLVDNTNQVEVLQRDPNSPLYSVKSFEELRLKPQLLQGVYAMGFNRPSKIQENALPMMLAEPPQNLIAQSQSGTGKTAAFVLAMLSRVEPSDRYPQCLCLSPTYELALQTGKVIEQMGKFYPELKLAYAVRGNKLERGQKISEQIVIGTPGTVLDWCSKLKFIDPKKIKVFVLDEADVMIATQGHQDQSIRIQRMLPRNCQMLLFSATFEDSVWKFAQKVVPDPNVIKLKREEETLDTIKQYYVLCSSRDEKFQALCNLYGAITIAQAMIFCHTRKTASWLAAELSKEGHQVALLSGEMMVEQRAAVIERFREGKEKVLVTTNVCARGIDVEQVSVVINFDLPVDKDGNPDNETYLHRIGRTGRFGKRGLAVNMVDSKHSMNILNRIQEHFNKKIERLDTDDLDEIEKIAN
UniProt Q7Z4W1: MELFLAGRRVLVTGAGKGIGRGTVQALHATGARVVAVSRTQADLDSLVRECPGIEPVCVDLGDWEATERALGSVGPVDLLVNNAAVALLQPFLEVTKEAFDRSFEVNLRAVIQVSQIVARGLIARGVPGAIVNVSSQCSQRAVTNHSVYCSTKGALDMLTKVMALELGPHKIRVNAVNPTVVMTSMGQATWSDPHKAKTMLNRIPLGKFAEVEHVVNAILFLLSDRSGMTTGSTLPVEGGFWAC
UniProt Q9UNQ2: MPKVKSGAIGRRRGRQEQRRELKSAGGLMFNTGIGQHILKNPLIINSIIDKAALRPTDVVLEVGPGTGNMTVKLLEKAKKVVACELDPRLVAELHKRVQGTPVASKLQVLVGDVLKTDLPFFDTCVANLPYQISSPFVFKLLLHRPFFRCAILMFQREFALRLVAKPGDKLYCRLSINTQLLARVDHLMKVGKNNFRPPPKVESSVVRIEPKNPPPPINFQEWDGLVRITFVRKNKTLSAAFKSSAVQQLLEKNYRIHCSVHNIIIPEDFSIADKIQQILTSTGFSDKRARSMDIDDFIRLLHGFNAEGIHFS
UniProt P98153: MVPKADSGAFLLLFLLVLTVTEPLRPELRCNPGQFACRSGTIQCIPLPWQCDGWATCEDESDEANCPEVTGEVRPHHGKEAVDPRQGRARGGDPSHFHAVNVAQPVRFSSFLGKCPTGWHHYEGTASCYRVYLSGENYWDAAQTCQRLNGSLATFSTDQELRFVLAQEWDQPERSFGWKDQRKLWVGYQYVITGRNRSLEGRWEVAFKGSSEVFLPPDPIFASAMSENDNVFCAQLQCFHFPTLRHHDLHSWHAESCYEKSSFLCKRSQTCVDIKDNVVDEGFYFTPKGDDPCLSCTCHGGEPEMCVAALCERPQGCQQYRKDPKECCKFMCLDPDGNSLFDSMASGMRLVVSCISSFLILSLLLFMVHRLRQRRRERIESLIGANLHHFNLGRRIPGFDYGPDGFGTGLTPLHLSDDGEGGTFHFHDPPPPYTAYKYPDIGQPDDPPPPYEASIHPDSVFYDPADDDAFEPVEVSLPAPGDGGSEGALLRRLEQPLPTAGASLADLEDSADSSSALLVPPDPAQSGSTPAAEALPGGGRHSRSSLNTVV
UniProt Q9Y6V7: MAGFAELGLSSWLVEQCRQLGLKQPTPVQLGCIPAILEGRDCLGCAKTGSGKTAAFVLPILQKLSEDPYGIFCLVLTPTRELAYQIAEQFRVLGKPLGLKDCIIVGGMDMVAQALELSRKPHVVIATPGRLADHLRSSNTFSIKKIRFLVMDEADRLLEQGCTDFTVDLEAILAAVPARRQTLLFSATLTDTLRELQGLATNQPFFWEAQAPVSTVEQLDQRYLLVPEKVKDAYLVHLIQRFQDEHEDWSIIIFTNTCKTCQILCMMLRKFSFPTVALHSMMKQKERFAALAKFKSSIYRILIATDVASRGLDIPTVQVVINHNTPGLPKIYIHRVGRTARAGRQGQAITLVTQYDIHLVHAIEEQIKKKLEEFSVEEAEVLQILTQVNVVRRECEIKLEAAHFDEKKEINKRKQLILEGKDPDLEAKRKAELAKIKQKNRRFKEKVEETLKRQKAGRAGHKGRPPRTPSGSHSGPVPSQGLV
UniProt O94760: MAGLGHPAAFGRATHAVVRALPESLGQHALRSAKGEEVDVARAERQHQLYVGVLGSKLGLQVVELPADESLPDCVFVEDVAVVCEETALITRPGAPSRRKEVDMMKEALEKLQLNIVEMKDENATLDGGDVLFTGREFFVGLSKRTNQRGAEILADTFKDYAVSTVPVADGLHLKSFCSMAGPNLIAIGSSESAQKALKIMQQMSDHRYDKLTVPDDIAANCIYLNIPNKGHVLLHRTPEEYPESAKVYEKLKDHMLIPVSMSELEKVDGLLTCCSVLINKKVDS
UniProt Q9NR30: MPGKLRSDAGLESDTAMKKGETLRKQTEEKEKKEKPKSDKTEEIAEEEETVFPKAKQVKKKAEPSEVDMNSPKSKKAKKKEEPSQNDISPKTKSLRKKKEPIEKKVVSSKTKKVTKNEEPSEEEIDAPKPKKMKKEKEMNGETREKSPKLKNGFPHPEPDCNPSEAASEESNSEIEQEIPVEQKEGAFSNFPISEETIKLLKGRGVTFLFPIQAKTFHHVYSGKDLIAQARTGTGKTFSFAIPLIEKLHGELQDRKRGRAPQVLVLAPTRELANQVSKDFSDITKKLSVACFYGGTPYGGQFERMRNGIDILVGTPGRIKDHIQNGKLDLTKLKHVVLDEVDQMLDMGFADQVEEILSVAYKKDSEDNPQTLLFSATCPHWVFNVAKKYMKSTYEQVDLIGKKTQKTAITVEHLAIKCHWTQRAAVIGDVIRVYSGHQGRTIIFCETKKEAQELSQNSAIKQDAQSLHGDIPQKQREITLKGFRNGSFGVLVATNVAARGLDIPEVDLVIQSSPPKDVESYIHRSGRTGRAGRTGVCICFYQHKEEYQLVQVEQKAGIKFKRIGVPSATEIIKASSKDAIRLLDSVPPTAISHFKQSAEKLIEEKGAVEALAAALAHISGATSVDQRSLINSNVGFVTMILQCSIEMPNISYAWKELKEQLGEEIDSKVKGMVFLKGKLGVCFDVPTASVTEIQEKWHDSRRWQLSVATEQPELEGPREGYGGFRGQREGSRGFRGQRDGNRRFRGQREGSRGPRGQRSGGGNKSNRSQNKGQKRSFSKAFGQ
UniProt Q9BUN8: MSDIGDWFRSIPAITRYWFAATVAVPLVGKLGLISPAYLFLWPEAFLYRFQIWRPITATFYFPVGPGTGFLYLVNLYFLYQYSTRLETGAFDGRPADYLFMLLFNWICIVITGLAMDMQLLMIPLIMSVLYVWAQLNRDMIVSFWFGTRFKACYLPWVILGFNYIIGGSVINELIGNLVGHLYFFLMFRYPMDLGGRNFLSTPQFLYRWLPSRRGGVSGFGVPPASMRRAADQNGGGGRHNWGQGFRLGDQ
UniProt Q99766: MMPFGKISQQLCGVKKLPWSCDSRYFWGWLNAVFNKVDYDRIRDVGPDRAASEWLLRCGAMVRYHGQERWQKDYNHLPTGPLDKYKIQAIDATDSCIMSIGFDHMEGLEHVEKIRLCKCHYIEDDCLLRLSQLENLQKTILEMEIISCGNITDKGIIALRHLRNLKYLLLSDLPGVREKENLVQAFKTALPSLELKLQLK
UniProt Q9NY93: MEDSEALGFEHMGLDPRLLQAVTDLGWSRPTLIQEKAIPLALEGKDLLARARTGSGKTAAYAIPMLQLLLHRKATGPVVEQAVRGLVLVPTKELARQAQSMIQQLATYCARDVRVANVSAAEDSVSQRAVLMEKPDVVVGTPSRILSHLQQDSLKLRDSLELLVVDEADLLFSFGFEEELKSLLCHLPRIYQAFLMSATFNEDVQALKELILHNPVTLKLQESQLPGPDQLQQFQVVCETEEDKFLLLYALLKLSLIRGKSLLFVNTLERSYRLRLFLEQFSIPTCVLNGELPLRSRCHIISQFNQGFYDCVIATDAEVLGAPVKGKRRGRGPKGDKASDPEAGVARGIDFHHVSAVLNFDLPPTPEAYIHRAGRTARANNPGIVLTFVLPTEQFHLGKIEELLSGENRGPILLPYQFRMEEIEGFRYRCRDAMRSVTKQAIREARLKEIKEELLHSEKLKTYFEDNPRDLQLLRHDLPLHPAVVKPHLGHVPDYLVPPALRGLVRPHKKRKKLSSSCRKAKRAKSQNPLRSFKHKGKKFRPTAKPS
UniProt O95865: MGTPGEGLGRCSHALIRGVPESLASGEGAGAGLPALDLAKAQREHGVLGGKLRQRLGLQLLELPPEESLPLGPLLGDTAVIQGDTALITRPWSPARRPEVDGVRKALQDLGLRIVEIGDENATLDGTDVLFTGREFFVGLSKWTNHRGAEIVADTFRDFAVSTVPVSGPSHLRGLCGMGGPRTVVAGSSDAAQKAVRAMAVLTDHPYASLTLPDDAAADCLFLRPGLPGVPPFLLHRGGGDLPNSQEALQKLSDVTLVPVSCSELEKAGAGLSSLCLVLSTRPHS

Compound: c1cn2cc(-c3ccc4cn[nH]c4c3)nc(Nc3ccc(N4CCOCC4)cc3)c2n1 [entospletinib]
Assay: log2 fold change, soluble protein after heating vs DMSO (PISA); higher = thermal stabilisation; K562 cells, 10 uM, 30 min; active = over 0.2 and 3.5 SD of the protein, either way, in both replicates (recomputed)
Outline: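 Thermal stability values are relative to control samples and come from duplicates. They are expressed as log2 fold changes. For measurement, K562 cells (2×10^6 cells/mL) received 10 μM compound for 30 min, and aliquots were heated for 3 min over 48°C-58°C, pooled, and extracted at 4°C in PBS with 0.5% NP-40. Soluble protein, the supernatant after 21,000xg for 90 min, was quantified by TMTpro 16plex LC-MS/MS with equalised channel sums.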

log2 fold change, inactive:
DENND6A (UniProt Q8IWF6) 0.002
DDX42 (UniProt Q86XP3) -0.016
DDT (UniProt P30046) -0.035
DHX30 isoform 2 (UniProt Q7L2E3) 0.225
DDX25 (UniProt Q9UHL0) -0.071
DDX19A (UniProt Q9NUU7) -0.089
DMTN (UniProt Q08495) 0.008
DLGAP4 (UniProt Q9Y2H0) 0.023
DNAJA1 (UniProt P31689) -0.031
DHX32 (UniProt Q7L7V1) 0.032
DCXR (UniProt Q7Z4W1) -0.012
DNAH9 (UniProt Q9NYC9) -0.001
DDX41 (UniProt Q9UJV9) -0.055
DDA1 (UniProt Q9BW61) 0.007
DIMT1 (UniProt Q9UNQ2) 0.048
DIS3 (UniProt Q9Y2L1) -0.095
DGCR2 (UniProt P98153) 0.021
DENND4A isoform 2 (UniProt Q7Z401) 0.088
DDX49 (UniProt Q9Y6V7) 0.112
DDAH1 (UniProt O94760) -0.092
DDHD2 (UniProt O94830) -0.016
DDX21 (UniProt Q9NR30) 0.033
DMD (UniProt P11532) -0.008
DERL1 (UniProt Q9BUN8) 0.042
DMAC2L (UniProt Q99766) -0.021
DHX38 (UniProt Q92620) -0.044
DDX55 (UniProt Q8NHQ9) 0.174
DDX56 (UniProt Q9NY93) 0.116
DDAH2 (UniProt O95865) -0.016

2 successive records out of the list so far, for reference:
log2 fold change, inactive:
DDX41 (UniProt Q9UJV9) -0.055
DDA1 (UniProt Q9BW61) 0.007
